Protein sequences, listed by entry. Tags and fused reporters are not part of them.
UniProt O17695: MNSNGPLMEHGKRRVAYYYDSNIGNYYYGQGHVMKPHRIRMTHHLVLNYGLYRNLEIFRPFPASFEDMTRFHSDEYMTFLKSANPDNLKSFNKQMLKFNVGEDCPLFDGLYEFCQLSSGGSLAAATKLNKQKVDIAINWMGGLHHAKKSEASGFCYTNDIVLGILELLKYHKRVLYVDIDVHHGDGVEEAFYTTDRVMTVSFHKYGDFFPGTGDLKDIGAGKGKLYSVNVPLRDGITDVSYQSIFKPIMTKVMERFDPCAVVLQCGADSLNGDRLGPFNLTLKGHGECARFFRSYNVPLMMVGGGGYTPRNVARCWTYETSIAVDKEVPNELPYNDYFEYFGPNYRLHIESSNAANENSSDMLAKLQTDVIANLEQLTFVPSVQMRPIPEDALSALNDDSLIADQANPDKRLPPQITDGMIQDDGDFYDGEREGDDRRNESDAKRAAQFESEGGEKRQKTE
UniProt A5JYW9: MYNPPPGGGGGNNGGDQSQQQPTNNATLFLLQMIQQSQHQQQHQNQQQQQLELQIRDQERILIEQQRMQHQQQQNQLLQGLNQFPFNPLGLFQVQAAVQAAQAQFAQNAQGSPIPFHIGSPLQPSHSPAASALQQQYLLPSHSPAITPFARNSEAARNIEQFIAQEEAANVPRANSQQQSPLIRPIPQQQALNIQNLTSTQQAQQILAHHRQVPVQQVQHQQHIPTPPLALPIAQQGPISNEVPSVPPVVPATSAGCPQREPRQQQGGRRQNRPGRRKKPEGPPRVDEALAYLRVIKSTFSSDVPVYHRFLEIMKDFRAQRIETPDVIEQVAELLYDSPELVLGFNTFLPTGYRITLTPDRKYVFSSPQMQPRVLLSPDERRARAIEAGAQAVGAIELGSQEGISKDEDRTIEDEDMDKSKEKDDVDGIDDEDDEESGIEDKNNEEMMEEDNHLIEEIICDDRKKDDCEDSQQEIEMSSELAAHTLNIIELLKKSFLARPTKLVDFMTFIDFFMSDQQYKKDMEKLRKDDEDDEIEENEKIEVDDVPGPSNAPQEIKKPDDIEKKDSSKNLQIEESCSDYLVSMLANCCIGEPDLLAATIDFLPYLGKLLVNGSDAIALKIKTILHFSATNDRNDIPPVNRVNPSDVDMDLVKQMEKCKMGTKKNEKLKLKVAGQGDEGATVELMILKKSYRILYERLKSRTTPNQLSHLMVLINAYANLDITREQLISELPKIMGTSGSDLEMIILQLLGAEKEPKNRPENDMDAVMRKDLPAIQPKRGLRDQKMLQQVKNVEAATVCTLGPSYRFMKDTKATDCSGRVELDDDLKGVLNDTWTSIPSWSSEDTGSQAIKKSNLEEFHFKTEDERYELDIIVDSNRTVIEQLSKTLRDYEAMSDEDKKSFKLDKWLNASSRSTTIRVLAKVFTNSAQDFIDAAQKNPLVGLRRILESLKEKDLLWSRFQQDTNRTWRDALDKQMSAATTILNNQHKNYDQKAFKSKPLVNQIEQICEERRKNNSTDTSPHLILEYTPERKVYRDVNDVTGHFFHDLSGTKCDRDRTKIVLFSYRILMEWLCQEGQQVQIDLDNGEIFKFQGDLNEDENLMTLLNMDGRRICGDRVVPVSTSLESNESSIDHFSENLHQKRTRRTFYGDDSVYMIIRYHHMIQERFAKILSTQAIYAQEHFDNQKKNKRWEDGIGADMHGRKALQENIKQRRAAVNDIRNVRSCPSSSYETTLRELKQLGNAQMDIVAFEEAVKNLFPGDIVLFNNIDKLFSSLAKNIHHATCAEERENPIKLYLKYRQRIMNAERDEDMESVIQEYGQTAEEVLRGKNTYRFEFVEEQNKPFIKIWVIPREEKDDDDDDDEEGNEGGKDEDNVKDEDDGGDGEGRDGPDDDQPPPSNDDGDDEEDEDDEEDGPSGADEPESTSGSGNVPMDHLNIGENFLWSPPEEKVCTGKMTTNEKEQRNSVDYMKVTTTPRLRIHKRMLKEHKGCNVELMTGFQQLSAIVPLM

In article doi:10.1101/2021.02.14.431134:

T1: MRG-1::3xHA (C. elegans (endogenous in worms)) (UniProt A7DTF0)
T1 sequence: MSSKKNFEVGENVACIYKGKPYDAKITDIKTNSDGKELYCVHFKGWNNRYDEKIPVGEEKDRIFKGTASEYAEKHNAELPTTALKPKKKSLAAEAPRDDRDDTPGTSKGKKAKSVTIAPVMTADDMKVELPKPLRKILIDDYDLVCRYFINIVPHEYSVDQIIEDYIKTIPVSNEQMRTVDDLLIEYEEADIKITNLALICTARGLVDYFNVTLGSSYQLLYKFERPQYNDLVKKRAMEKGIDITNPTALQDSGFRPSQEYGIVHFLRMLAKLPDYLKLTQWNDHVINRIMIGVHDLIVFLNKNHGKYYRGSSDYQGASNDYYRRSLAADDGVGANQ


What follows are molecules tested against T1, MRG-1::3xHA (C. elegans (endogenous in worms)) (assay: affinity purification with mass spectrometry).

binding	Molecule
binds	ATHP-1, AT Hook plus PHD finger transcription factor (C. elegans (endogenous in worms))
binds	HDA-1 (from UniProt O17695 1-461)
binds	SIN-3 (from UniProt A5JYW9 1-1507)
binds	SUMV-2 (protein, UniProt Q22992 1-1145) MKPGRKSLPKKNRASNITEKMPTTSTEAQSSSSKNQDRCRSFSQELGVDDEPEEQQAPVATPKQTKKAQKTAKTTEEVKSPRKSARKSELKKPEPEEKAKEPRKSASKRKSSSLMNKDEPSTSTEAPSADVPGTSEASDEASEIQEAPENPNSALAIKKRLMGGGESSKSAPTKNPPKARKSNVKKPEKEAEALAPPEPPAEPQEAAETPAPEPLVPEKKPKIEDAPTTSSPKKSTPTSAPPTRASARVSKPNRLYADGSFNTEILGRTRITEQNPVKEAQAKESTPELADLPLPAGRRKSTAAPRAPPAPKPIPVINGVLRGYIPSVKVPLAEYEVDGEIINLNEGVNETMDTILAKVCEDGVEKHEDIDPKVVKAKKLAKIDYTKRLKLQVKKLDIQMRIKIPSTPEELGKRKRQAPKTDDFYWSAQSRTKLKGSSKEREETPAFDEESPIGGDEKRQQKARESISHLFDAEMDASIKEAKKYSVSFDKYIKPKITGALKHAKIKLMSRKRQSAEPDDFYYHELLVDQVSPSNSNVENVDVDVDIEETDDKVDPTEFEISEEGVIGIRDEAVDMAEQIALVIPRPTKHDGSPMSMDEIQMRAMEHVESRTKCLDGSLEIVLNQLGHEMAPPTRGVEEQGCQWHTVTSANAQALKNLYTIANNCTEDAITWTHQFMIENLEVHMLASYLSILKYAKRLNSSRFGYVISSTDQLDPEWTQVTSLLKSFVYKRHTEPGTEVLNNTIPYHRMTDTVFLLVPPTLTFGDHQRAPPRHHARIFRWLQSIGHQDSEFISFDEDIDATCSVAEYLSDVIVERICDKVRQKNKYRPNCNVVLVGYGASTYLIHRAANLVEGISAIISIGFPVMTSLGRRGTADDEILLTYCPTLFIVGAEGRRFNNEAITELRTSMISPSGLVVVGHSNDMILVPTSMLLRLGISQTVVFRMVLEKILDFLNLEPVRQQEFADLVPIELNNVFDLDSALLKSDKALSGLAFASSTHSASSSAAPSPVGASGRRATVTGAGSEDIAKRRKESIILSQQIAAPSISGPPPPAPSPRTEDRFLAFQNLVASTITTGDDMPRRASMGASPRVIERGDFRDHRPPPPPPLPILQNPVATPMSQQPPLPSPAPPPPRGPVDPASISLI

Results are given in words; binding and its absence hold for the method and conditions named. In cells and extracts the contact can be indirect. Here binding means that the protein was enriched with, or labelled near, the bait; the list need not be complete.
